Test results from the supplement of paper PMC12889115.
The list shows a part of the results. Values are raw readings; no control value is given beside them.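 In the initial screen, polymyxin B was used at a concentration that permeabilizes Salmonella's outer membrane but not its inner membrane. Maximum growth was set by DMSO wells with or without polymyxin B. Since plates varied, data were ranked per plate, and compounds giving the lowest OD600 advanced as hits.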

Tested on: Salmonella enterica serovar Typhimurium SL1344
Assay: bacterial growth OD600 after 18 h with compound and polymyxin B; higher = more bacterial growth (less inhibition)
Settings: 50 µM, Mueller-Hinton broth

SMILES | bacterial growth OD600 (polymyxin B 1 µg/mL) | bacterial growth OD600 (polymyxin B 0.75 µg/mL)
O=C(NCC1CCCCO1)c1coc(COc2ccc3ncccc3c2)n1 (stereo not given) | 0.877 | –
Cc1cc(C(=O)N2CCC(C3CCN(CC(C)C)CC3)C2)c(C)o1 (stereo not given) | – | 0.715
CCOc1ccc(CN2CCC(Oc3cc(OC)ccc3C(=O)N3CCCC3)CC2)cc1 | 1.16 | –
CCO[C@H]1[C@H](NC(=O)c2cccnc2)c2ccccc2C12CCN(C(=O)c1ccc(F)cc1)CC2 | – | 0.816
CN(Cc1ccccc1Cl)C(=O)c1coc(COc2cccc(F)c2)n1 | 0.046 | –
O=C(NCC1CCCN(S(=O)(=O)/C=C/c2ccccc2)C1)c1ccco1 (stereo not given) | – | 0.033
COc1ccc(OCc2nc(C(=O)N(C)Cc3cccnc3)co2)cc1 | 0.929 | –
CCOC(=O)C1CCCN(C(=O)CC2(c3cccc(C(F)(F)F)c3)CC(=O)N(CC)C2=O)C1 (stereo not given) | – | 0.701
COC(=O)C1CCN(Cc2cn(-c3ccccc3)nc2-c2ccc3c(c2)OCO3)CC1 | 0.904 | –
O=C1CCCN1CCC(=O)N1CCc2[nH]nc(-c3ccc(C(F)(F)F)cc3)c2C1 | – | 0.949
COc1ccc(-c2nn(-c3ccccc3C)cc2CN(C)C2CCOC2)cc1F (stereo not given) | 0.612 | –
COC(=O)c1ccc(CNCCC2CCC(=O)N2CCOC(C)C)cc1 (stereo not given) | – | 0.947
Cc1nc(N2CCC(C(=O)NCC3OCCc4ccccc43)CC2)nc2cc(S(C)(=O)=O)ccc12 (stereo not given) | – | 0.82
CC(C)N1CCC(C(=O)N2CCCC(CCc3cccc(F)c3)C2)CC1 (stereo not given) | – | 0.516
CC(=O)NCC(=O)N1CCC(C2CCN(Cc3ccc(Cl)cc3)C2)CC1 (stereo not given) | – | 0.904
Cc1ccccc1N1CCN(c2ncccc2CNC(=O)C2CCCC2)CC1 | 0.095 | –
CSCCNC(=O)C1CCC(=O)N(CCc2cccc(F)c2)C1 (stereo not given) | 0.789 | –
Cc1ccccc1-n1nnnc1C(c1ccccc1)N(C)C(=O)CCC1(C)CCC(=O)N1 (stereo not given) | – | 0.82
COCCCN1C(=O)CC(CC(=O)N2CCCCC2c2nccs2)(c2ccccc2OC)C1=O (stereo not given) | – | 0.949
CN(CC1Cc2ccccc2O1)C(=O)CCC1(Cc2ccc(Cl)cc2)CCC(=O)N1 (stereo not given) | – | 0.883

Full records as entered above:
COCCCN1C(=O)CC(CC(=O)N2CCCCC2c2nccs2)(c2ccccc2OC)C1=O (stereo not given) as listed: bacterial growth OD600 (polymyxin B 0.75 µg/mL): 0.949
O=C(NCC1CCCN(S(=O)(=O)/C=C/c2ccccc2)C1)c1ccco1 (stereo not given) as listed: bacterial growth OD600 (polymyxin B 0.75 µg/mL): 0.033
